From PMC11549365
No constants are given. Whether binding was seen depends on the method and setting. Binding seen in cells or lysates may run through a third protein. Some entries that bind do so weakly or less than the wild type. Where a sequence is shown, tags or fusion partners need not be part of it.

By UniProt entry, the sequences of proteins in these tests, tags left out.
UniProt Q8K341: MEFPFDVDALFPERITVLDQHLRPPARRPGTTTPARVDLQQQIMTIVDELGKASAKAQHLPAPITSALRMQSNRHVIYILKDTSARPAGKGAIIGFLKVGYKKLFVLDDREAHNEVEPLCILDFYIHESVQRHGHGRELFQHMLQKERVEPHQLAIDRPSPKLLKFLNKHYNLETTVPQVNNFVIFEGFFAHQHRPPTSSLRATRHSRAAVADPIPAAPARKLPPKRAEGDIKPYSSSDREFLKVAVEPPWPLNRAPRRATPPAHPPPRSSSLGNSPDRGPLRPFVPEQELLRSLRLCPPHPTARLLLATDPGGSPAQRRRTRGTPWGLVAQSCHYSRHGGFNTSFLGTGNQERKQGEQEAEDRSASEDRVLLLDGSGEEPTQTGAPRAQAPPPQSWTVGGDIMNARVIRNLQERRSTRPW
UniProt Q8CDJ3: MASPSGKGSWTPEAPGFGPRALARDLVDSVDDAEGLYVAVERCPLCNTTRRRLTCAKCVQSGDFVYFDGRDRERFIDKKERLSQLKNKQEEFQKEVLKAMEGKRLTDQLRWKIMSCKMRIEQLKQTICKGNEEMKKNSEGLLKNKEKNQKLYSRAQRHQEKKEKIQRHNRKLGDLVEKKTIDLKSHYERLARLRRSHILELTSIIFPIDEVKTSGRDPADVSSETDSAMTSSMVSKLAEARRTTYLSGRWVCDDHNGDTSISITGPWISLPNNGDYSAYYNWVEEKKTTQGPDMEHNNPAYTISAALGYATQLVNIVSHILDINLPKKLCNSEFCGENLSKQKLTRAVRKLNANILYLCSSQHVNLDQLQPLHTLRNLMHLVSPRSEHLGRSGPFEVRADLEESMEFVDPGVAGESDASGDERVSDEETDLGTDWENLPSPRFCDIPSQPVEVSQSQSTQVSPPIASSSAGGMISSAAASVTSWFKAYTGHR

T1: FLAG-TMEM232 (mouse) (UniProt Q5K6N0)
T1 sequence: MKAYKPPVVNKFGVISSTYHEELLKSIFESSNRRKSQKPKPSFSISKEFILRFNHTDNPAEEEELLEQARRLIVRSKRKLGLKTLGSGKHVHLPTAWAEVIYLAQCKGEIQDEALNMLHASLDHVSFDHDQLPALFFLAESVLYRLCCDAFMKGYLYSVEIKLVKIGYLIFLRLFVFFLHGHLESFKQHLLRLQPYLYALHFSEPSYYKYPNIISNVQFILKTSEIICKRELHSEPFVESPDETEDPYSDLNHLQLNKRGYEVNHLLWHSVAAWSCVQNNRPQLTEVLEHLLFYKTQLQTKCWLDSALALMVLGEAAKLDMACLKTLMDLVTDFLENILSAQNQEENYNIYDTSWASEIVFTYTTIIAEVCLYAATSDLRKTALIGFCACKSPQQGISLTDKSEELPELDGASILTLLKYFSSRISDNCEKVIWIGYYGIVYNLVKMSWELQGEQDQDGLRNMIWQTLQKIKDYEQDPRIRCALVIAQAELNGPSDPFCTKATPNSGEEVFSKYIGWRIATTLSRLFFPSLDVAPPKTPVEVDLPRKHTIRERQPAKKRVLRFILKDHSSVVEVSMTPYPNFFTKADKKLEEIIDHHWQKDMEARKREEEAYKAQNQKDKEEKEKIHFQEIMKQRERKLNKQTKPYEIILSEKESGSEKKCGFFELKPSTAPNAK

T2: VDAC3 (Outer Mitochondrial Membrane Protein Porin 3) (not stated (human or mouse cDNA cloned)) (UniProt Q60931)
T2 sequence: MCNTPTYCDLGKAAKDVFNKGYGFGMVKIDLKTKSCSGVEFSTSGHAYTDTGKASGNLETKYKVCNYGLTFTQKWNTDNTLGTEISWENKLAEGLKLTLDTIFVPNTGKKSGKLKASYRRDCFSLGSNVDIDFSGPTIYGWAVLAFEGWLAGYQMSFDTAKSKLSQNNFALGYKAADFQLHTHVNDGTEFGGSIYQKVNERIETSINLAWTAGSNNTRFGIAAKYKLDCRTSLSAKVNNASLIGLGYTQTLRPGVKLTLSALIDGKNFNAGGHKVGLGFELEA

B1: GFP-SEPTIN2 (protein, UniProt P42208 1-361)
chain: MSKQQPTQFINPETPGYVGFANLPNQVHRKSVKKGFEFTLMVVGESGLGKSTLINSLFLTDLYPERIIPGAAEKIERTVQIEASTVEIEERGVKLRLTVVDTPGYGDAINCRDCFKTIISYIDEQFERYLHDESGLNRRHIIDNRVHCCFYFISPFGHGLKPLDVAFMKAIHNKVNIVPVIAKADTLTLKERERLKKRILDEIEEHSIKIYHLPDAESDEDEDFKEQTRLLKASIPFSVVGSNQLIEAKGKKVRGRLYPWGVVEVENPEHNDFLKLRTMLITHMQDLQEVTQDLHYENFRSERLKRGGRKVENEDMNKDQILLEKEAELRRMQEMIARMQAQMQMQMQGGDSDSGALGQHV
B2: GFP-SEPTIN6 (protein, UniProt Q9R1T4 1-434)
chain: MAAADIARQVGEDCRTVPLAGHVGFDSLPDQLVNKSVSQGFCFNILCVGETGLGKSTLMDTLFNTKFEGEPATHTQPGVQLQSNTYDLQESNVGLKLTIVSTVGFGDQINKEDSYKPIVEFIDAQFEAYLQEELKIRRVLHSYHDSRIHVCLYFIAPTGHSLKSLDLVTMKKLDSKVNIIPVIAKSDAISKSELAKFKIKITSELVSNGVQIYQFPTDDESVSEINGTMNAHLPFAVVGSTEEVKIGNKMMRARQYPWGTVQVENEAHCDFVKLREMLIRVNMEDLREQTHARHYELYRRCKLEEMGFKDTDPDSKPFSLQETYEAKRNEFLGELQKKEEEMRQMFVQRVKEKEAELKEAEKELHEKFDRLKKLHQEEKKKLEDKKKCLDEEMNAFKQRKAAAELLQSQGSQAGGSQTLKRDKEKKNNPWLCIE
B3: GFP-SEPTIN4 (protein, UniProt P28661 1-478)
chain: MDHSLGWQGNSVPEDGTEAGIKHFLEDSSDDAELSKFVKDFPGSEPYHSAESKTRVARPQILEPRPQSPDLCDDDVEFRGSLWPQPSDSQQYFSAPAPLSPSSRPRSPWGKLDPYDSSEDDKEYVGFATLPNQVHRKSVKKGFDFTLMVAGESGLGKSTLVNSLFLTDLYRDRKLLGAEERIMQTVEITKHAVDIEEKGVRLRLTIVDTPGFGDAVNNTECWKPVAEYIDQQFEQYFRDESGLNRKNIQDNRVHCCLYFISPFGHGLRPLDVEFMKALHQRVNIVPILAKADTLTPPEVDRKKCKIREEIEHFGIKIYQFPDCDSDEDEDFKLQDQALKESIPFAVIGSNTVVEARGRRVRGRLYPWGIVEVENPGHCDFVKLRTMLVRTHMQDLKDVTRETHYENYRAQCIQSMTRLVVKERNRNKLTRESGTDFPIPAVPPGTDPETEKLIREKDEELRRMQEMLHKIQRQMKETH
B4: GFP-SEPTIN11 (protein, UniProt Q8C1B7 1-431)
chain: MAVAVGRPSNEELRNLSLSGHVGFDSLPDQLVNKSTSQGFCFNILCVGETGIGKSTLMDTLFNTKFESDPATHNEPGVRLKARSYELQESNVRLKLTIVDTVGFGDQINKDDSYKPIVEYIDAQFEAYLQEELKIKRSLFNYHDTRIHACLYFIAPTGHSLKSLDLVTMKKLDSKVNIIPIIAKADTIAKNELHKFKSKIMSELVSNGVQIYQFPTDEETVAEINATMSVHLPFAVVGSTEEVKIGNKMAKARQYPWGVVQVENENHCDFVKLREMLIRVNMEDLREQTHTRHYELYRRCKLEEMGFKDTDPDSKPFSLQETYEAKRNEFLGELQKKEEEMRQMFVMRVKEKEAELKEAEKELHEKFDLLKRTHQEEKKKVEDKKKELEEEVSNFQKKKAAAQLLQSQAQQSGAQQTKKDKDKKNPWLCTE
B5: GFP-SEPTIN7 (protein, UniProt O55131 1-436)
chain: MSVSARSAAAEERSVNCGTMAQPKNLEGYVGFANLPNQVYRKSVKRGFEFTLMVVGESGLGKSTLINSLFLTDLYSPEYPGPSHRIKKTVQVEQSKVLIKEGGVQLLLTIVDTPGFGDAVDNSNCWQPVIDYIDSKFEDYLNAESRVNRRQMPDNRVQCCLYFIAPSGHGLKPLDIEFMKRLHEKVNIIPLIAKADTLTPEECQQFKKQIMKEIQEHKIKIYEFPETDDEEENKLVKKIKDRLPLAVVGSNTIIEVNGKRVRGRQYPWGVAEVENGEHCDFTILRNMLIRTHMQDLKDVTNNVHYENYRSRKLAAVTYNGVDNNKNKGQLTKSPLAQMEEERREHVAKMKKMEMEMEQVFEMKVKEKVQKLKDSEAELQRRHEQMKKNLEAQHKELEEKRRQFEEEKANWEAQQRILEQQNSSRTLEKNKKKGKIF
B6: GFP-SEPTIN12 (protein, UniProt A0A2R8VJU7 1-357)
chain: MDERRSPSPCSSRPSSPRTPPNEMFGPVGIEAVLDQLRIKAMKTGFEFNIMVVGQSGLGKSTMVNTLFKSKVWQSTEPNLDVPMPQTLELHSVTHVIEEKGLKLKLTVTDTPGFGDQINNDKCWDPILSYINQQYEQYLQEELLITRQRHIPDTRVHCCVYFVPPTGHCLRPLDIEFLRRLCRTVNVVPVIARADSLTIEERDAFRSRIQQNLKTHCIDVYPQKCFDEDVNDRLLNSKIREQIPFAVVGADREHIVNGRCVLGRKTKWGIIEVENMAHCEFLLLRDLLIRSHLQDLKDITHNVHYENYRVLRLNESHVLPRGPGWVNLAPVSPGQLMAPGPGKVRKRANKDTKDEEC
B7: GFP-SEPTIN14 (protein, UniProt Q9DA97 1-430)
chain: MAEKPTNTSVPIPGSEDPQKENIRCLSTLGHFGFECLPTQLVNKSIQKGFSFNILCVGETGIGKTTLINTLFNTNLKETKSSHFYSKVGLTVKTYELLERNIPLRLTVVKTVGYGDQINKEASYQPVVDYLDAQFEAYLQEELKIKRSLADYHDSRIHVCLYFITPTGHSLKSLDLLTMKSIDRRVNIIPLIAKADSLSKNDLQRFKNNIMSELNSNGIQIYQFQVDDEASAQVNSSGLLPFAVVGSMEEVKVGKRMVRGRHYPWGVLQEVENENHCDFVKLRDLLLSTNMEDLKDQTHTQHYECYRSNRLQKLGFSDTGPDNRPVSFQEMYEAKRREFHNQCQKEEEELKQTFMQRVKEKELTFKDAEKELQDKFEHLKRIQQEEILKLEEERRKLEEQIIDFYKMKAASESAQAQVCTNIKKDKDRKK

Each molecule was assayed against T1, FLAG-TMEM232 (mouse) (assay: co-IP; HEK-293T cells co-transfected with the two plasmids, lysed after 24 h (50 mM HEPES pH 7.4, 150 mM NaCl, 2 mM MgCl2, 1 mM EGTA, 0.1% Triton X-100); cleared lysate incubated with FLAG beads overnight at 4 °C, washed three times; western blot with anti-FLAG and anti-GFP).

binding, binds:
ATAT1 (Alpha α-Tubulin Acetyltransferase 1) (from UniProt Q8K341 1-421) (enzyme)
ATG14 (from UniProt Q8CDJ3 1-492)

Molecular target: T1, FLAG-TMEM232 (mouse)
Assay: as above
Remark: another data set of the same source

binding, binds:
B1
B2
B3
B4
B5
B6
B7

These molecules were tested against T2, VDAC3 (Outer Mitochondrial Membrane Protein Porin 3) (not stated (human or mouse cDNA cloned)) in the same assay as above.

binding, binds:
B1
B5
B6
